# This is one part of the list. Shown are side measurements of this screen, not its main read-out; they come without a call. The list favours compounds with an active or inconclusive main result. Potencies come from curve fits of mixed quality, noted in brackets.
# Experiment: qHTS Assay for Modulators of Lamin A Splicing
# Conditions: HeLa LMNA splicing GFP/RFP minigene ratio, 48 h
# In short: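 S3 HeLa stable clones carrying a lamin A-EGFP splicing minigene plus DsRed2 were seeded at 600 cells/well in Opti-MEM with 2% FBS, pin-dosed and incubated 48 h at 37°C. Acumen cytometry (488 nm) gave the GFP/RFP total-intensity ratio.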
# [1] = measured here: GFP splicing reporter channel
# [2] = measured here: RFP viability control channel
SMILES,AC50 [1],AC50 [2]
Cc1nc2c(C(=O)NCc3ccccc3)c[nH]n2c(=O)c1Cc1ccccc1Cl,"7.94 µM [falling, partial curve, poor fit]","12.6 µM [falling, partial curve, poor fit]"
COc1cccc(C(=O)Nc2ccc(N3CCCC3)cc2)c1,,"35.5 µM [rising, single point]"
Cc1ccc(NS(=O)(=O)c2cc(C(=O)N3CCc4ccccc4C3)ccc2Cl)cc1,"17.8 µM [falling, single point]","35.5 µM [falling, single point]"
O=C(N/N=C/c1cccc([N+](=O)[O-])c1O)c1cccs1,,"28.2 µM [rising, single point]"
Oc1ccc2c(c1)oc1cc(O)ccc12,,"12.6 µM [rising, single point]"
Cc1ccc(-c2cc(N)n(-c3ccc(F)cc3)n2)cc1,,"0.00501 µM [falling, full curve, poor fit]"
CCOC(=O)c1c(S(=O)(=O)N2CCCC(C(=O)Nc3cccc(Cl)c3)C2)c(C)n(C)c1C (configuration not stated),,"28.2 µM [falling, partial curve]"
O=c1c(-c2cc3ccccc3o2)[n+]([O-])c2ccccc2n1OCc1ccccn1,,"25.1 µM [falling, single point]"
CCOC(=O)c1c(NC(=O)C(Sc2ccccc2)c2ccccc2)sc(C(=O)N(C)C)c1C (configuration not stated),,"25.1 µM [rising, single point]"
CCC(=C(c1ccc(OC)cc1)c1ccc(OC)cc1)c1cn(CC(O)CN(CCO)CCO)c2ccccc12 (configuration not stated),"15.8 µM [falling, single point]","14.1 µM [falling, single point]"
Cc1cccc(C(=O)Nc2nc(C)c(C(=O)Nc3ccc4c(c3)CCC4)s2)c1,"22.4 µM [falling, partial curve]","35.5 µM [falling, single point]"
CC(C)n1nnc2c(=O)oc3ccccc3c21,,"4.47 µM [rising, partial curve, poor fit]"
Cc1ccc(S(=O)(=O)Nc2ccc(Cl)cc2C(=O)c2ccc(F)cc2)cc1,,"35.5 µM [rising, single point]"
CCOc1ccc(CNS(=O)(=O)c2cc3c(cc2C)NC(=O)CO3)cc1OC,"0.447 µM [rising, partial curve, poor fit]","0.355 µM [rising, full curve, poor fit]"
COc1ccc(-n2c(=O)c3ccccc3c3ccccc3c2=O)cc1,,"0.501 µM [rising, full curve, poor fit]"
Cc1ccc(OCC(=O)Nc2nnc(SCc3cc(=O)c4ccccc4[nH]3)s2)cc1,"0.251 µM [rising, partial curve]",
CCCn1c(/C=N/Nc2nc3ccccc3[nH]2)nc2ccccc21,,"11.2 µM [rising, partial curve, poor fit]"
O=C(O)c1[nH]c2ccccc2c1C=NCc1ccccc1Cl,"35.5 µM [falling, single point]",
Cc1ccc(-c2nc3sc(CCNC(=O)c4ccc(Br)o4)c(C)n3n2)cc1,"20 µM [falling, partial curve, poor fit]","1 µM [falling, partial curve, poor fit]"
CC(=O)N(CN1C(=O)c2ccccc2C1=O)c1ccc2c(c1)oc1ccccc12,"1.26 µM [falling, full curve, poor fit]",
CC(C)=CCC1C(=O)N(c2ccccc2)N(c2ccccc2)C1=O,,"31.6 µM [falling, single point]"
CCOc1ccc(C(=O)N2CCC(c3nc4ccccc4o3)CC2)cc1,,"39.8 µM [falling, partial curve, poor fit]"
COC(=O)c1c(NC(=O)c2ccc(C)cc2)csc1C,,"28.2 µM [falling, single point]"
O=C(NCCc1csc(-c2ccccc2)n1)c1c(F)cccc1F,,"0.00316 µM [falling, full curve, poor fit]"
O=c1cc(-c2ccccc2Cl)oc2c([N+](=O)[O-])c(O)cc(O)c12,"2.24 µM [rising, partial curve]","3.98 µM [rising, partial curve]"
O=C(C(=O)N1CCOCC1)c1c[nH]c2ccccc12,,"0.00355 µM [falling, full curve, poor fit]"
CCCCNC(=S)N(C)/N=C/c1ccc(OCC(=O)Nc2c(C)cc(C)cc2C)c(OC)c1,"7.08 µM [rising, full curve]","11.2 µM [rising, partial curve]"
COC(=O)c1c(-c2cccs2)csc1NC(=O)COc1ccc(C(C)(C)C)cc1,"35.5 µM [rising, single point]","20 µM [rising, single point]"
